Test results from paper PMC7790415, “Loss of endocytosis-associated RabGEF1 causes aberrant morphogenesis and altered autophagy in photoreceptors leading to retinal degeneration” (PLoS Genetics, 2020).

Protein sequences, listed by entry. Tags and fused reporters are not part of them.
UniProt Q9JM13: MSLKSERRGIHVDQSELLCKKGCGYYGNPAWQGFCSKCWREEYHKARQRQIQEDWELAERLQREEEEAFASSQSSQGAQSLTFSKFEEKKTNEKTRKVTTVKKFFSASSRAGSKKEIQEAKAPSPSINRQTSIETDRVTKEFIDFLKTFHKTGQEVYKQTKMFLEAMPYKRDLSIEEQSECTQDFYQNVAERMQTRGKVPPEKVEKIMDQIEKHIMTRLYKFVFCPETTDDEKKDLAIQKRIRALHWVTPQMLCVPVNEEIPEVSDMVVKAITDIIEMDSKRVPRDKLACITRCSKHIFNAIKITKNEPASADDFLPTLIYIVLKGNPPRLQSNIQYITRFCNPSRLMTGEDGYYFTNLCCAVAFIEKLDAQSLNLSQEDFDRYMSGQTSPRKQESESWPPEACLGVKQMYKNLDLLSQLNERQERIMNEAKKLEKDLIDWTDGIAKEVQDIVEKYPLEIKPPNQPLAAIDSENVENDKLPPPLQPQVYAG

Biological target: RabGEF1 (mouse (endogenous in retina)) (UniProt Q9JM13)
Assay: affinity purification with mass spectrometry; anti-RabGEF1 and IgG immunoprecipitates from control and Rabgef1-/- mouse retinal lysates; trypsin digest, LC-MS on Orbitrap Lumos (n = 2)

B1: Rabep2 (protein, UniProt Q91WG2 1-554)
chain: MAAAPATLALDPQPQEKQKDASESSELSRLRAELAGALAEMETMKAVAEVSESTKAEAVAAVQRQCQEEVASLQAILKDSISSYETQIAALKQERQQQQQDFEEKDRELGHLKQLLARAHPLDSLEKQMEKAHEDSEKLREIVLPMEQEITELKGKLQRAEELIQEIQRRPRQPASLHGSTELLPLSRNPSPPLEPLEEPSGDAGPAAEAFAHNCDDSASISSFSLGGAAGSASLRGPQGLSPEQEETASLVSTGTLVPEGIFLPPPGYQLVPDSQWEQLQVEGRQLQKELESVSRERDELQEGLRRSNEDCAKQMQVLLAQVQNSEQLLRTLQGTVSQAQERVQLQMAELATSHKCLSQEVKRLNEENQGLRAEQLPSSALQGSEQREDQDEALPSSIQELHLLVQNTRQQARARQQAQEHEAERLRIEIVKLREALDEETAAKASLERQLRVQREETDVLEASLCSLRIETERVQQEQRKAQLTDLLSEQRAKTLRLQAELETSEQVQRDFVRLSQALQVRLERIRQAETLQQVRSILDEAPLRDIRDIKDS
binding: binds

Results are given in words; binding and its absence hold for the method and conditions named. In cells and extracts the contact can be indirect. A yes stands for co-enrichment or nearness to the bait. Other partners may have been found.
